Measurements reported in PubChem BioAssay AID1259405 (NCATS, 2018)
Test: 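Knock-downs that lift recombinant protein yield in hamster ovary cells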 (primary screen). Cells: Chinese hamster CHO-K1 ovary cells with stable secreted eGFP expression. Reagent: single siRNA against mouse genes, 0.8 pmol siRNA per well (2 µl of 400 nM stock). Duration: 3 days. Measured: 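Percent of the per-plate non-targeting control median for intracellular GFP per well by laser scanning cytometry and for cell viability by ATP luminescence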. Scale: GFP, % of control: higher = more GFP per well, higher productivity; viability (ATP), % of control: higher = more viable cells (more ATP). Call rule: 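a knock-down is called active if GFP reaches 120% or more of non-targeting control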.
Here is one part, drawn at random, of about 50,000 reagents tested. About 4,000 of all reagents (8%) count as active. 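Mouse siRNA library applied to hamster cells; one well for each siRNA.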 Reagent sequences are not shown.

{"Gene": "Hrc", "PubChem SID": "SID363582381", "GFP, % of control": 108, "viability (ATP), % of control": 92.1, "outcome": "inactive"}
{"Gene": "Hrc", "PubChem SID": "SID363584141", "GFP, % of control": 88.9, "viability (ATP), % of control": 60.1, "outcome": "inactive"}
{"Gene": "Pdlim1", "PubChem SID": "SID363572268", "GFP, % of control": 102, "viability (ATP), % of control": 65.6, "outcome": "inactive"}
{"Gene": "Pdlim1", "PubChem SID": "SID363574028", "GFP, % of control": 80.8, "viability (ATP), % of control": 79.3, "outcome": "inactive"}
{"Gene": "Zbtb17", "PubChem SID": "SID363573791", "GFP, % of control": 79.6, "viability (ATP), % of control": 100, "outcome": "inactive"}
{"Gene": "Zbtb17", "PubChem SID": "SID363581535", "GFP, % of control": 56.5, "viability (ATP), % of control": 83.2, "outcome": "inactive"}
{"Gene": "Zbtb17", "PubChem SID": "SID363583999", "GFP, % of control": 54.1, "viability (ATP), % of control": 68.7, "outcome": "inactive"}

A run of entries of the results above:
{"Gene": "Zbtb17", "PubChem SID": "SID363573791", "GFP, % of control": 79.6, "viability (ATP), % of control": 100, "outcome": "inactive"}
{"Gene": "Zbtb17", "PubChem SID": "SID363581535", "GFP, % of control": 56.5, "viability (ATP), % of control": 83.2, "outcome": "inactive"}

Additional results:
{"Gene": "Txndc9", "PubChem SID": "SID363573074", "GFP, % of control": 69.4, "viability (ATP), % of control": 73.2, "outcome": "inactive"}
{"Gene": "Txndc9", "PubChem SID": "SID363577650", "GFP, % of control": 29.9, "viability (ATP), % of control": 28.1, "outcome": "inactive"}
{"Gene": "Txndc9", "PubChem SID": "SID363581170", "GFP, % of control": 95.2, "viability (ATP), % of control": 76.9, "outcome": "inactive"}
{"Gene": "Pafah1b2", "PubChem SID": "SID363569765", "GFP, % of control": 72.1, "viability (ATP), % of control": 102, "outcome": "inactive"}
{"Gene": "Pafah1b2", "PubChem SID": "SID363576805", "GFP, % of control": 50.5, "viability (ATP), % of control": 54.3, "outcome": "inactive"}
{"Gene": "Pafah1b2", "PubChem SID": "SID363578213", "GFP, % of control": 30.1, "viability (ATP), % of control": 74.9, "outcome": "inactive"}
{"Gene": "Erich3", "PubChem SID": "SID363540578", "GFP, % of control": 54.4, "viability (ATP), % of control": 48.6, "outcome": "inactive"}
{"Gene": "Erich3", "PubChem SID": "SID363543029", "GFP, % of control": 68.1, "viability (ATP), % of control": 83.1, "outcome": "inactive"}
{"Gene": "Erich3", "PubChem SID": "SID363552522", "GFP, % of control": 81.7, "viability (ATP), % of control": 88.8, "outcome": "inactive"}
